Test results from patent US9125388B2, “Biological control” (Isis Innovation Limited, priority 1999, dated 2015).
Several values for one entry are separate records, joined by “and”; a condition that tells them apart may be missing. Identical values can stand only once. This continues a long series; more values of the same kind are listed elsewhere.

Columns and labels:
Format in all cases: in vivo, Drosophila melanogaster
[1] = system: Sxl^pe-tTA, tRE-Msl-2^Nopu on the X chromosome; experiment: Recombinant chromosome experiments: parents raised on supplement, progeny on normal food, adults by sex (25, 18 or 29° C.); conditions: 25° C., Day 1-12 on tetracycline-free food
Method: (§1) 40-45 young females and 20-25 young males raised at 25° C. upon food with the indicated tetracycline supplement were allowed to mate, then transferred to normal (tetracycline-free) food after 3-4 days. These flies were transferred to fresh vials of normal food every day for 12 days, then removed on the 13th day. All the vials were incubated at 25° C. while the progeny developed. The numbers of male and female progeny emerging as adults in each vial were recorded.
(§2) A standard range of additive concentrations were used in the following experiments (0.05-20 μg/ml). […] (=“not done”)
(§3) All the preceding experiments were performed at 25° C., the standard temperature for Drosophila culture. However, the insects in the wild would clearly be exposed to varying temperatures, so we investigated the extent to which the efficiency of the system is affected by temperature. As with the recombinant chromosome experiments, 40-45 young virgin females and 20-25 young males raised at 25° C. upon food with the indicated tetracycline supplement were allowed to mate, then transferred to normal (tetracycline-free) food after 3-4 days. These flies were transferred to fresh vials of normal food every day. The numbers of male and female progeny emerging as adults in each vial were recorded. These experiments were performed at either 18° C. or 29° C.

[2] = system: Sxl^pe-tTA, tRE-Ras64B^V12 on the third chromosome; experiment: as above; conditions: 25° C., Day 1-12 on tetracycline-free food, listed as Tet.
Method: as §1, §2, §3

[3] = system: Yp3 tTa, tRe Ras64B^V12 on the 2nd chromosome; experiment: Recombinant chromosome experiments / maternal transmission of Tc (Table 1): parents raised on supplement, progeny on normal food, adults by sex; conditions: 25° C.
Method: as §1, §2, §3
We used a strain of Drosophila in which females, but not males, require Tc for viability.
A strain homozygous for second chromosome insertions of both Yp3-tTA and tRe-Ras64B^V12 was tested for the effect of parental dietary Tc. 40-45 young females and 20-25 young males raised at 25° C. upon food with the indicated tetracycline supplement were allowed to mate, then transferred to normal (tetracycline-free) food after 3-4 days. These flies were transferred to fresh vials of normal food every day for 12 days, and then removed on the 13th day. All the vials were incubated at 25° C. while the progeny developed. The total numbers of male and female progeny emerging as adults were recorded.

[4] = parents raised on Tet. 1000 μg/ml
[5] = parents raised on Tc 0.1 μg/ml, Day 1 on normal food
[6] = parents raised on Tc 0.1 μg/ml, Day 2 on normal food
[7] = parents raised on Tc 0.1 μg/ml, Day 3 on normal food
[8] = parents raised on Tc 0.1 μg/ml, Day 4 on normal food
[9] = parents raised on Tc 0.1 μg/ml, Day 5 on normal food
[10] = parents raised on Tc 0.1 μg/ml, Day 6 on normal food
[11] = parents raised on Tc 0.1 μg/ml, Day 7 on normal food
[12] = parents raised on Tc 1 μg/ml, Day 1 on normal food
[13] = parents raised on Tc 1 μg/ml, Day 2 on normal food
[14] = parents raised on Tc 1 μg/ml, Day 3 on normal food
[15] = parents raised on Tc 1 μg/ml, Day 4 on normal food
[16] = parents raised on Tc 1 μg/ml, Day 5 on normal food
[17] = parents raised on Tc 1 μg/ml, Day 6 on normal food
[18] = parents raised on Tc 1 μg/ml, Day 7 on normal food
[19] = parents raised on Tc 5 μg/ml, Day 1 on normal food
[20] = parents raised on Tc 5 μg/ml, Day 2 on normal food
[21] = parents raised on Tc 5 μg/ml, Day 3 on normal food
[22] = parents raised on Tc 5 μg/ml, Day 4 on normal food
[23] = parents raised on Tc 5 μg/ml, Day 5 on normal food
[24] = parents raised on Tc 5 μg/ml, Day 6 on normal food
[25] = parents raised on Tc 5 μg/ml, Day 7 on normal food
[26] = parents raised on Tc 5 μg/ml, Day 10 on normal food

## CN(C)[C@@H]1C(O)=C(C(N)=O)C(=O)[C@@]2(O)C(O)=C3C(=O)c4c(O)cccc4[C@@](C)(O)[C@H]3C[C@@H]12 [Tetracycline, tetracycline]
[1]; parents raised on Tet. 0.1 μg/ml, listed as Tet.
  Male progeny per daily vial: 104 and 141 and 114 and 136
[1]; parents raised on Tet. 1 μg/ml, listed as Tet.
  Male progeny per daily vial: 120 and 171 and 118 and 91 and 99 and 134
[1]; parents raised on Tet. 5 μg/ml, listed as Tet.
  Male progeny per daily vial: 155 and 163 and 130 and 110 and 159 and 156 and 91 and 84
[1]; parents raised on Tet. 20 μg/ml, listed as Tet.
  Male progeny per daily vial: 103 and 78 and 76 and 98 and 94 and 79 and 89
[1]; parents raised on Tet. 100 μg/ml, listed as Tet.
  Male progeny per daily vial: 79 and 157 and 154 and 134 and 145 and 130
[1]; parents raised on Tet. 500 μg/ml, listed as Tet.
  Male progeny per daily vial: 136 and 102
[1]; [4]
  Male progeny per daily vial: 115
[1]; parents raised on Tet. 2000 μg/ml, listed as Tet.
  Male progeny per daily vial: 97 and 95 and 153 and 164 and 158 and 103
[2]; parents raised on Tet. 0.1 μg/ml
  Male progeny per daily vial: 142 and 147 and 130 and 103 and 150 and 98 and 149 and 134
[2]; parents raised on Tet. 1 μg/ml
  Male progeny per daily vial: 91 and 99 and 149 and 148 and 86
[2]; parents raised on Tet. 5 μg/ml
  Male progeny per daily vial: 99 and 106 and 95 and 134 and 93 and 148 and 142
[2]; parents raised on Tet. 20 μg/ml
  Male progeny per daily vial: 149 and 150 and 89 and 140 and 106 and 97 and 142
[2]; parents raised on Tet. 100 μg/ml
  Male progeny per daily vial: 93 and 87 and 94 and 103 and 142
[2]; parents raised on Tet. 500 μg/ml
  Male progeny per daily vial: 98 and 90 and 140 and 120 and 148 and 100 and 95
[2]; [4]
  Male progeny per daily vial: 92 and 150 and 145 and 110 and 106 and 87 and 91
[2]; parents raised on Tet. 2000 μg/ml
  Male progeny per daily vial: 131 and 126
[3]; [5]
  ♀ progeny emerging as adults: 0
  ♂ progeny emerging as adults: 93
[3]; [6]
  ♀ progeny emerging as adults: 0
  ♂ progeny emerging as adults: 119
[3]; [7]
  ♀ progeny emerging as adults: 0
  ♂ progeny emerging as adults: 112
[3]; [8]
  ♀ progeny emerging as adults: 0
  ♂ progeny emerging as adults: 141
[3]; [9]
  ♀ progeny emerging as adults: 0
  ♂ progeny emerging as adults: 100
[3]; [10]
  ♀ progeny emerging as adults: 0
  ♂ progeny emerging as adults: 126
[3]; [11]
  ♀ progeny emerging as adults: 0
  ♂ progeny emerging as adults: 89
[3]; [12]
  ♀ progeny emerging as adults: 0
  ♂ progeny emerging as adults: 117
[3]; [13]
  ♀ progeny emerging as adults: 0
  ♂ progeny emerging as adults: 135
[3]; [14]
  ♀ progeny emerging as adults: 0
  ♂ progeny emerging as adults: 122
[3]; [15]
  ♀ progeny emerging as adults: 0
  ♂ progeny emerging as adults: 121
[3]; [16]
  ♀ progeny emerging as adults: 0
  ♂ progeny emerging as adults: 127
[3]; [17]
  ♀ progeny emerging as adults: 0
  ♂ progeny emerging as adults: 101
[3]; [18]
  ♀ progeny emerging as adults: 0
  ♂ progeny emerging as adults: 136
[3]; [19]
  ♀ progeny emerging as adults: 0
  ♂ progeny emerging as adults: 112
[3]; [20]
  ♀ progeny emerging as adults: 0
  ♂ progeny emerging as adults: 116
[3]; [21]
  ♀ progeny emerging as adults: 0
  ♂ progeny emerging as adults: 128
[3]; [22]
  ♀ progeny emerging as adults: 0
  ♂ progeny emerging as adults: 111
[3]; [23]
  ♀ progeny emerging as adults: 0
  ♂ progeny emerging as adults: 136
[3]; [24]
  ♀ progeny emerging as adults: 0
  ♂ progeny emerging as adults: 113
[3]; [25]
  ♀ progeny emerging as adults: 0
  ♂ progeny emerging as adults: 130
[3]; parents raised on Tc 5 μg/ml, Day 9 on normal food
  ♀ progeny emerging as adults: 0
[3]; [26]
  ♀ progeny emerging as adults: 0
  ♂ progeny emerging as adults: 88
[3]; parents raised on Tc 5 μg/ml, Day 11 on normal food
  ♀ progeny emerging as adults: 0
